Some entries share one result that the patent states for a list of compounds.
Target: T1, B-Raf (V599E or Wild Type) (Homo sapiens, UniProt P15056)
T1 construct: Enzymatically active wild-type B-Raf was purchased from Upstate (cat#14-530); Enzymatically active mutant B-Raf(V599E) was purified in house; fused on or other part: None is printed; By knowledge, Upstate 14-530 is an N-terminally GST-tagged truncated human B-Raf; the tag is not part of the key
Test: B-Raf Flash Plate Assay
Format: biochemical
Conditions: bin: less than or equal to 100 nM

The chains behind the UniProt entries cited, without tags or fusion partners.
UniProt P15056, whole entry, stated change not applied: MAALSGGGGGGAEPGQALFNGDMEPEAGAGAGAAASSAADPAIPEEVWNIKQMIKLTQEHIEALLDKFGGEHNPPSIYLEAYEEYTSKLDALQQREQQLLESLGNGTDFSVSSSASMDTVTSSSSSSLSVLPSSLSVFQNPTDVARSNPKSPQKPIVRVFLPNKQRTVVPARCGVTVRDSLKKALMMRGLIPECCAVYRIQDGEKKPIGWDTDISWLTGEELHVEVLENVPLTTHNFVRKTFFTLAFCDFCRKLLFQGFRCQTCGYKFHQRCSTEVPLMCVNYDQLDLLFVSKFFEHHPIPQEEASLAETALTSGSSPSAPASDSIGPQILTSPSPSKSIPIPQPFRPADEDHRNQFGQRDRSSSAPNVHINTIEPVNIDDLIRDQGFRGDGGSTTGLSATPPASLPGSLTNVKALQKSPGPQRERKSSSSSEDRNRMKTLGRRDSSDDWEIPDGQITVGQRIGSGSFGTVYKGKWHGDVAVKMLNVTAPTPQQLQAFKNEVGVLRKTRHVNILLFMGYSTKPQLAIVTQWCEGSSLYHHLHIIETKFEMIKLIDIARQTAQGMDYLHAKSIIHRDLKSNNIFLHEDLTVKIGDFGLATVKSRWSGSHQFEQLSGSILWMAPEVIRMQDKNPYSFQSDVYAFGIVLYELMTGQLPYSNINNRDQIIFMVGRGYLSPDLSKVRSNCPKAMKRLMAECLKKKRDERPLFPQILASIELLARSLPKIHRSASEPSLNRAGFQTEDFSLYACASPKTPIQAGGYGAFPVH

SMILES	IC50 [nM]
O=C(c1ccc(-c2ccccn2)s1)N1N=C(c2cnccn2)CC1c1ccccc1O (stereo not shown) [Compound I-8, 2-{3-pyrazin-2-yl-1-[(5-pyridin-2-yl-2-thienyl)carbonyl]-4,5-dihydro-1H-pyrazol-5-yl}phenol]	≤ 100
CCN1CCN(Cc2ccc(-c3ccc(C(=O)N4N=C(c5cccnc5)CC4c4ccccc4O)s3)cc2)CC1 (stereo not shown) [Compound I-63, 2-{1-[(5-{4-[(4-ethylpiperazin-1-yl)methyl]phenyl}-2-thienyl)carbonyl]-3-pyridin-3-yl-4,5-dihydro-1H-pyrazol-5-yl}phenol]	≤ 100
NCc1ccccc1-c1ccc(C(=O)N2N=C(c3cccnc3)CC2c2ccccc2O)s1 (stereo not shown) [Compound I-195, 2-[1-({5-[2-(aminomethyl)phenyl]-2-thienyl}carbonyl)-3-pyridin-3-yl-4,5-dihydro-1H-pyrazol-5-yl]phenol]	≤ 100
Cc1ccc(-c2ccc(C(=O)N3N=C(c4cccnc4)CC3c3ccccc3O)o2)cc1 (stereo not shown) [Compound I-176, 2-{1-[5-(4-methylphenyl)-2-furoyl]-3-pyridin-3-yl-4,5-dihydro-1H-pyrazol-5-yl}phenol]	≤ 100
O=C([C@H]1C[C@H]1c1ccccn1)N1N=C(c2cccnc2)CC1c1ccccc1O (stereo partly drawn) [Compound I-120, 2-(3-pyridin-3-yl-1-{[(1S,2R)-2-pyridin-2-ylcyclopropyl]carbonyl}-4,5-dihydro-1H-pyrazol-5-yl)phenol]	≤ 100
O=C(O)c1ccc(-c2ccc(C(=O)N3N=C(c4cccnc4)CC3c3ccccc3O)s2)cc1 (stereo not shown) [Compound I-50, 4-(5-{[5-(2-hydroxyphenyl)-3-pyridin-3-yl-4,5-dihydro-1H-pyrazol-1-yl]carbonyl}-2-thienyl)benzoic acid]	≤ 100
O=C(c1ccc(-c2ccccc2Cl)s1)N1N=C(c2cccnc2)CC1c1ccccc1O (stereo not shown) [Compound I-125, 2-(1-{[5-(2-chlorophenyl)-2-thienyl]carbonyl}-3-pyridin-3-yl-4,5-dihydro-1H-pyrazol-5-yl)phenol]	≤ 100
O=C(c1ccc(-c2ccc3c(c2)CNC3)s1)N1N=C(c2cccnc2)CC1c1ccccc1O (stereo not shown) [Compound I-330, 2-(1-{[5-(2,3-dihydro-1H-isoindol-5-yl)-2-thienyl]carbonyl}-3-pyridin-3-yl-4,5-dihydro-1H-pyrazol-5-yl)phenol]	≤ 100
O=C(c1cc(-c2ccc3c(c2)OCO3)on1)N1N=C(c2cccnc2)CC1c1ccccc1O (stereo not shown) [Compound I-34, 2-(1-{[5-(1,3-benzodioxol-5-yl)isoxazol-3-yl]carbonyl}-3-pyridin-3-yl-4,5-dihydro-1H-pyrazol-5-yl)phenol]	≤ 100
O=C(c1ccc(-c2cccc3c2CNC3)s1)N1N=C(c2cccnc2)CC1c1ccccc1O (stereo not shown) [Compound I-347, 2-(1-{[5-(2,3-dihydro-1H-isoindol-4-yl)-2-thienyl]carbonyl}-3-pyridin-3-yl-4,5-dihydro-1H-pyrazol-5-yl)phenol]	≤ 100
CC(C)c1ccccc1-c1ccc(C(=O)N2N=C(c3cccnc3)CC2c2ccccc2O)s1 (stereo not shown) [Compound I-208, 2-(1-{[5-(2-isopropylphenyl)-2-thienyl]carbonyl}-3-pyridin-3-yl-4,5-dihydro-1H-pyrazol-5-yl)phenol]	≤ 100
NCc1cnccc1-c1ccc(C(=O)N2N=C(c3cccnc3)CC2c2ccccc2O)s1 (stereo not shown) [Compound I-381, 2-[1-({5-[3-(aminomethyl)pyridin-4-yl]-2-thienyl}carbonyl)-3-pyridin-3-yl-4,5-dihydro-1H-pyrazol-5-yl]phenol]	≤ 100
CC(C)NCc1ccccc1-c1ccc(C(=O)N2N=C(c3cccnc3)CC2c2ccccc2O)s1 (stereo not shown) [Compound I-80, 2-{1-[(5-{2-[(isopropylamino)methyl]phenyl}-2-thienyl)carbonyl]-3-pyridin-3-yl-4,5-dihydro-1H-pyrazol-5-yl}phenol]	≤ 100
O=C([C@H]1C[C@@H]1c1ccncc1)N1N=C(c2cccnc2)CC1c1ccccc1O (stereo partly drawn) [Compound I-129, 2-(3-pyridin-3-yl-1-{[(1S,2S)-2-pyridin-4-ylcyclopropyl]carbonyl}-4,5-dihydro-1H-pyrazol-5-yl)phenol]	≤ 100
O=C(c1cnc(-c2ccccn2)s1)N1N=C(c2cccnc2)CC1c1ccccc1O (stereo not shown) [Compound I-67, 2-{3-pyridin-3-yl-1-[(2-pyridin-2-yl-1,3-thiazol-5-yl)carbonyl]-4,5-dihydro-1H-pyrazol-5-yl}phenol]	≤ 100
O=C(c1ccc(-c2ccc(CN3CCOCC3)cc2)s1)N1N=C(c2cccnc2)CC1c1ccccc1O (stereo not shown) [Compound I-92, 2-[1-({5-[4-(morpholin-4-ylmethyl)phenyl]-2-thienyl}carbonyl)-3-pyridin-3-yl-4,5-dihydro-1H-pyrazol-5-yl]phenol]	≤ 100
NCc1ccc(-c2ccc(C(=O)N3N=C(c4cccnc4)CC3c3ccccc3O)s2)c(F)c1 (stereo not shown) [Compound I-276, 2-[1-({5-[4-(aminomethyl)-2-flurophenyl]-2-thienyl}carbonyl)-3-pyridin-3-yl-4,5-dihydro-1H-pyrazole-5-yl]phenol]	≤ 100
CC(C)(C)OC(=O)N1CCN(Cc2ccc(C(=O)N3N=C(c4cccnc4)CC3c3ccccc3O)s2)CC1 (stereo not shown) [Compound I-28, tert-butyl 4-[(5-{[5-(2-hydroxyphenyl)-3-pyridin-3-yl-4,5-dihydro-1H-pyrazol-1-yl]carbonyl}-2-thienyl)methyl]piperazine-1-carboxylate]	≤ 100
NC(=O)c1ccccc1-c1ccc(C(=O)N2N=C(c3cccnc3)CC2c2ccccc2O)s1 (stereo not shown) [Compound I-203, 2-(5{[5-(2-hydroxyphenyl)-3-pyridin-3-yl-4,5-dihydro-1H-pyrazo1-1-yl]carbony1}-2-thienyl)benzamide]	≤ 100
CC(C)(CN)c1ccc(-c2ccc(C(=O)N3N=C(c4cccnc4)CC3c3ccccc3O)s2)cc1 (stereo not shown) [Compound I-221, 2-[1-({5-[4-(2-amino-1,1-dimethylethyl)phenyl]-2-thienyl}carbonyl)-3-pyridin-3-yl-4,5-dihydro-1H-pyrazol-5-yl]phenol]	≤ 100
NCc1ccccc1-c1ccc(C(=O)N2N=C(c3cncc(F)c3)CC2c2ccccc2O)s1 (stereo not shown) [Compound I-371, 2-[1-({5-[2-(aminomethyl)phenyl]-2-thienyl}carbonyl)-3-(5-fluoropyridin-3-yl)-4,5-dihydro-1H-pyrazol-5-yl]phenol]	≤ 100
COc1ccc(-c2ccccc2NC(=O)N2N=C(c3cccnc3)CC2c2ccccc2O)cc1 (stereo not shown) [Compound I-262, 5-(2-hydroxyphenyl)-N-(4′-methoxybiphenyl-2-yl)-3-pyridin-3-yl-4,5-dihydro-1H-pyrazole-1-carboxamide]	≤ 100
NCc1ccccc1-c1ccc(C(=O)N2N=C(c3cccnc3)CC2c2c(O)cccc2F)s1 (stereo not shown) [Compound I-180, 2-[1-({5-[2-(aminomethyl)phenyl]-2-thienyl}carbonyl)-3-pyridin-3-yl-4,5-dihydro-1H-pyrazol-5-yl]-3-fluorophenol]	≤ 100
O=C(c1ccc(-c2cccc3c2CCNC3)s1)N1N=C(c2cccnc2)CC1c1ccccc1O (stereo not shown) [Compound I-350, 2-(3-pyridin-3-yl-1-{[5-(1,2,3,4-tetrahydroisoquinolin-5-yl)-2-thienyl]carbonyl}-4,5-dihydro-1H-pyrazol-5-yl)phenol]	≤ 100
O=C(c1ccc(-c2ccc(CN3CCCC3)cc2)s1)N1N=C(c2cccnc2)CC1c1ccccc1O (stereo not shown) [Compound I-56, 2-[3-pyridin-3-yl-1-({5-[4-(pyrrolidin-1-ylmethyl)phenyl]-2-thienyl}carbonyl)-4,5-dihydro-1H-pyrazol-5-yl]phenol]	≤ 100

Source: US7795249B2, “Certain pyrazoline derivatives with kinase inhibitory activity” (Millennium Pharmaceuticals, Inc., priority 2006, dated 2010)
